According to US10160738B2, “Neuroactive substituted cyclopent[a]anthracenes as modulators for GABA type-A receptors” (priority 2013, dated 2018):

Legend:
[1] = tested on: tadpole; test: Tadpole loss of righting reflex (LRR) and loss of swimming reflex (LSR); type: in vivo; conditions: Hill coefficient, ± SEM; for Tadpole LRR nHill: loss of righting reflex; for Tadpole LSR nHill: loss of swimming reflex
Experimental: Table 3 discloses the anesthetic effects of the compounds of the present disclosure. In particular, the anesthetic effect of the compounds of the present disclosure on Loss of Righting Reflex (LRR) and Loss of Swimming Reflex (LSR).
Methods used are known in the art (see Jiang, X., et al.). Error limits are calculated as standard error of the mean (N=10 or more animals at each of five or more different concentrations).

[2] = tested on: picrotoxin binding site on GABAA receptors; test: [35S]-TBPS displacement (inhibition of [35S]-TBPS binding); conditions: Hill coefficient; ± SEM
Experimental: The IC50 values for non-competitive displacers of [^35S]-TBPS from the picrotoxin binding site on GABAA receptors are reported in Table 1.
Results presented are from duplicate experiments performed in triplicate. Error limits are calculated as standard error of the mean. Methods used are known in the art (see Jiang, X., et al., Neurosteroid analogues. 9. Conformationally constrained pregnanes: structure-activity studies of 13,24-cyclo-18,21-dinorcholane analogues of the GABA modulatory and anesthetic steroids (3α,5α)- and […]. J. Med. Chem., 46: 5334-48 (2003)—the contents of which are hereby incorporated by reference in their entirety).

C[C@@]12CC[C@H]3C[C@H]4C[C@H](O)CC[C@@H]4C[C@@H]3[C@H]1CC(=O)C2 [MQ-82, (3aS,5aS,6aS,8R,10aR,11aS,11bR)-8-Hydroxy-3a-methyl-hexadecahydro-2H-cyclopenta[a]anthracen-2-one]
Tadpole LRR nHill [1]: −15.6 ± 1.1
Tadpole LSR nHill [1]: −27.0 ± 0.0
Inhibition of [35S]-TBPS Binding nHill [2]: 1.09 ± 0.16

C[C@]12CC[C@@H]3C[C@@H]4C[C@@H](O)CC[C@H]4C[C@H]3[C@@H]1CC=C2C#N [MQ-76, (3aS,5aR,6aR,8S,10aS,11aR,11bS)-8-Hydroxy-3a-methyl-3a,4,5,5a,6,6a,7,8,9,10,10a,11,11a,11b-Tetradecahydro-1H-cyclopent[a]anthracene-3-carbonitrile]
Tadpole LRR nHill [1]: −2.31 ± 0.08
Tadpole LSR nHill [1]: −36.3 ± 0.1
Inhibition of [35S]-TBPS Binding nHill [2]: 1.04 ± 0.22

C[C@]12CC[C@@H]3C[C@@H]4C[C@@H](O)CC[C@H]4C[C@H]3[C@@H]1CC[C@@]21CO1 [MQ-75, (2′S,3S,3aS,5aR,6aR,8S,10aS,11aR,11bS)-Hexadecahydro-3a-methyl-spiro[3H-cyclopent[a]anthracene-3,2′-oxiran]-8-ol]
Tadpole LRR nHill [1]: −1.71 ± 0.42
Tadpole LSR nHill [1]: −15.9 ± 0.5
Inhibition of [35S]-TBPS Binding nHill [2]: 1.99 ± 0.30

C[C@]12CC[C@@H]3C[C@@H]4C[C@@H](O)CC[C@H]4C[C@H]3[C@@H]1CCC2=O [MQ-74, (3aS,5aR,6aR,8S,10aS,11aR,11bS)-Hexadecahydro-8-hydroxy-3a-methyl-cyclopent[a]anthracen-3-one]
Tadpole LRR nHill [1]: −15.6 ± 1.8
Inhibition of [35S]-TBPS Binding nHill [2]: 1.02 ± 0.15

C[C@]12CC[C@@H]3C[C@@H]4C[C@@H](O)CC[C@H]4C[C@H]3[C@@H]1CC[C@@H]2C#N [MQ-77, (3S,3aS,5aR,6aR,8S,10aS,11aR,11bS)-Hexadecahydro-8-hydroxy-3a-methyl-cyclopent[a]anthracene-3-carbonitrile]
Tadpole LRR nHill [1]: −1.84 ± 0.31
Tadpole LSR nHill [1]: −36.4 ± 0.1
Inhibition of [35S]-TBPS Binding nHill [2]: 0.88 ± 0.19

C[C@@]12CC[C@H]3C[C@H]4C[C@H](O)CC[C@@H]4C[C@@H]3[C@H]1CCC2=O [MQ-64, (3aR,5aS,6aS,8R,10aR,11aS,11bR)-Hexadecahydro-8-hydroxy-3a-methyl-3H-cyclopent[a]anthracen-3-one]
Tadpole LRR nHill [1]: −15.5 ± 1.0
Inhibition of [35S]-TBPS Binding nHill [2]: 1.13 ± 0.10

C[C@@]12CC[C@H]3C[C@H]4C[C@H](O)CC[C@@H]4C[C@@H]3[C@H]1CC=C2C#N [MQ-81, (3aR,5aS,6aS,8R,10aR,11aS,11bR)-8-Hydroxy-3a-methyl-3a,4,5,5a,6,6a,7,8,9,10,10a,11,11a,11b-Tetradecahydro-1H-cyclopent[a]anthracene-3-carbonitrile]
Tadpole LRR nHill [1]: −2.94 ± 0.28
Tadpole LSR nHill [1]: −36.4 ± 0.1
Inhibition of [35S]-TBPS Binding nHill [2]: 1.54 ± 0.16

C[C@@]12CC[C@H]3C[C@H]4C[C@H](O)CC[C@@H]4C[C@@H]3[C@H]1CC[C@]21CO1 [MQ-65, (2′R,3R,3aR,5aS,6aS,8R,10aR,11aS,11bR)-Hexadecahydro-3a-methyl-spiro[3H-cyclopent[a]anthracene-3,2′-oxiran]-8-ol]
Tadpole LRR nHill [1]: −2.42 ± 0.24
Tadpole LSR nHill [1]: −33.2 ± 0.2
Inhibition of [35S]-TBPS Binding nHill [2]: 0.78 ± 0.14
